Measurements published in article PMC12656381.

Target: T1, pea apyrase psNTP9 (PS), 4Myc-tagged, expressed in Arabidopsis seedlings (pea) (UniProt P52914)
T1 sequence: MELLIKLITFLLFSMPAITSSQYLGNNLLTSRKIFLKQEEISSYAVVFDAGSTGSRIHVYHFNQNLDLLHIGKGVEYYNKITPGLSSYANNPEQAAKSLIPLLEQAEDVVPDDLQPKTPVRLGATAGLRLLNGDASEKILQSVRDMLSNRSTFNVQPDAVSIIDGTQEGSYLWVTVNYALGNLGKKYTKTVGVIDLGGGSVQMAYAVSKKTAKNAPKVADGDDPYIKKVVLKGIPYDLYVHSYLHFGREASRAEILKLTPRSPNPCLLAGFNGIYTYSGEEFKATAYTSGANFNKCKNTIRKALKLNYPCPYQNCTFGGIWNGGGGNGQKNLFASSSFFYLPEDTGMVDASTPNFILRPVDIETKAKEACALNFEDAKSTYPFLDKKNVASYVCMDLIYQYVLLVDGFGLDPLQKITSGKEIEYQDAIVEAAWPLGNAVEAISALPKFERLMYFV
Assay: affinity purification with mass spectrometry; extracts of 7-day-old Arabidopsis seedlings (50 mM Tris pH 7.5, 150 mM NaCl, 1 mM EDTA, 0.1% Tween-20) incubated with EZview Red Anti-c-Myc Affinity Gel for 1 h at 4 °C, washed with TBS-T, eluted with 0.2 M glycine pH 2.6; LC-MS; hits also found in Columbia control seedlings discarded

B1: Scarecrow-like protein 30 (SCL30) (protein, UniProt Q9SNB8 1-583)
chain: MDAILPVPVDGFRFDTGSGSCCKPRNNLESGTTNRFTCFNESESQSNPSPTESKVCSDYLPVFKYINDMLMEEDLEGQSCMLEDSLALQAAERSFFEVLQDQTPISGDLEDGSLGNFSSITSLHQPEVSEESTRRYRHRDDDEDDDLESGRKSKLPAISTVDELAEKFEEVLLVCQKNDQGEATEKKTRHVKGSSNRYKQQKSDQPVDMRNLLMQCAQAVASFDQRRAFEKLKEIREHSSRHGDATQRLGYHFAEALEARITGTMTTPISATSSRTSMVDILKAYKGFVQACPTLIMCYFTANRTINELASKATTLHIIDFGILYGFQWPCLIQALSKRDIGPPLLRVTGIELPQSGFRPSERVEETGRRLKRFCDKFNVPFEYSFIAKNWENITLDDLVINSGETTVVNCILRLQYTPDETVSLNSPRDTALKLFRDINPDLFVFAEINGTYNSPFFLTRFREALFHCSSLFDMYETTLSEDDNCRTLVERELIIRDAMSVIACEGSERFARPETYKQWQVRILRAGFRPAKLSKQIVKDGKEIVKERYHKDFVIDNDNHWMFQGWKGRVLYAVSCWKPAKK
binding: binds

Results are given in words; binding and its absence hold for the method and conditions named. In cells and extracts the contact can be indirect. Here binding means that the protein was enriched with, or labelled near, the bait; the list need not be complete. Tags and fused reporters may be left off the sequences shown.
